No constants are given. Whether binding was seen depends on the method and setting. In cells and extracts the contact can be indirect. Some binding calls cover weakened binding; strength is not graded here.
How the values were obtained:
[1] = target: Y-box binding protein 1 (human (endogenous in HepG2 or Huh7)) (UniProt P67809); experiment: co-IP; total cell protein in cold lysis buffer, precleared with protein A/G agarose beads; primary antibody (rabbit anti-YB-1 or mouse anti-Robo2) overnight at 4 C, protein A/G magnetic beads 2 h; western blot of the partner; controls normal rabbit or mouse IgG
[2] = target: Roundabout guidance receptor 2 (human (endogenous in HepG2 or Huh7)) (UniProt Q9HCK4); experiment: as above

Protein sequences, listed by entry. Tags and fused reporters are not part of them. Residues count along the entry.
UniProt P67809: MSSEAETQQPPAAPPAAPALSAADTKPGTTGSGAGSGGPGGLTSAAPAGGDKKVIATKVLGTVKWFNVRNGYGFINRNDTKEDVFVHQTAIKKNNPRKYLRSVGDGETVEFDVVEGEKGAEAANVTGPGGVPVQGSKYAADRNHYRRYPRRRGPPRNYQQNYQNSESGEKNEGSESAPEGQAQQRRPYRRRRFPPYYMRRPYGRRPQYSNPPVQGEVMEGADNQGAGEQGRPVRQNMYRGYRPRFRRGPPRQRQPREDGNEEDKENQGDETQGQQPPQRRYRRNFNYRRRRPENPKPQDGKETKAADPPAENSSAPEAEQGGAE
UniProt Q9HCK4, residues 22-1378: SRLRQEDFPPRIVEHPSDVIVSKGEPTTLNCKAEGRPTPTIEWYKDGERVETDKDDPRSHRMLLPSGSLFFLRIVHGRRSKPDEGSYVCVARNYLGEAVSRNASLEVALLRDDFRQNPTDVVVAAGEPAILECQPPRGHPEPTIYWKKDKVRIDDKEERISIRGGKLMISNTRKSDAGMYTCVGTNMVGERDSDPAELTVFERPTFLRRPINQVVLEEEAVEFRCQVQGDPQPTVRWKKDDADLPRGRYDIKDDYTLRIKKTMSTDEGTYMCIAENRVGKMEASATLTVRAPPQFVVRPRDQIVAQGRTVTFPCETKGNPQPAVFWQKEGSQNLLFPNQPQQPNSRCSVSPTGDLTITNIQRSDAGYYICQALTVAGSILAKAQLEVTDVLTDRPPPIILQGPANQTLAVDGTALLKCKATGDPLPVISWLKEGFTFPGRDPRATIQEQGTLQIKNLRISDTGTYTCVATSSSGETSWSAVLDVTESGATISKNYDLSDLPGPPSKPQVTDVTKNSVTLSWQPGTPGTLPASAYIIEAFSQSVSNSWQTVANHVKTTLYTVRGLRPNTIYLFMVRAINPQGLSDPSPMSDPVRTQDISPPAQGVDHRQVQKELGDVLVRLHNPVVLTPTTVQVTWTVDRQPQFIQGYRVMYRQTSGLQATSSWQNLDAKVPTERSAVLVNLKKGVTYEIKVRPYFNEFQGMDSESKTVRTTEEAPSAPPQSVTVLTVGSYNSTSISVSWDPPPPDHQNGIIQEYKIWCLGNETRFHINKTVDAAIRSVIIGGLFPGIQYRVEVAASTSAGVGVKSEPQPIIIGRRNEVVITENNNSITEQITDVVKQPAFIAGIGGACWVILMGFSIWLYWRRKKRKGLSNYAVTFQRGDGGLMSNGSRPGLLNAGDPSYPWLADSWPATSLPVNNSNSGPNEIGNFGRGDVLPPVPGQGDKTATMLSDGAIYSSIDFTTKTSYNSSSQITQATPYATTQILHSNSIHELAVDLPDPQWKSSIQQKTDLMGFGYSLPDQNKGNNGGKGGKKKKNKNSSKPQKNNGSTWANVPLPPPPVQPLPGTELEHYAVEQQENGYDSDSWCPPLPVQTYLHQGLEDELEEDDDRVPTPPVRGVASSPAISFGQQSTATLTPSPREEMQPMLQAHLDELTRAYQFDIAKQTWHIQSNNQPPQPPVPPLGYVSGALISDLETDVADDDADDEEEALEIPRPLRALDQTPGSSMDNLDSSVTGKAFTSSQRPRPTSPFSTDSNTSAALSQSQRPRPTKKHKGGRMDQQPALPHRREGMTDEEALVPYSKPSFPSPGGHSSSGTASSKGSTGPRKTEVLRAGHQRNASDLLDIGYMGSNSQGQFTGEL

Substance	binding [1]	binding [2]
Roundabout guidance receptor 2 (from UniProt Q9HCK4 22-1378)	binds	
Y-box binding protein 1 (from UniProt P67809 1-324)		binds

Reference: publication PMC10830551
